No constants are given. Whether binding was seen depends on the method and setting. Some results given as binding are weak or reduced against the parent protein; the word gives no strength.
Biological target: Human Prostate-Specific Antigen (purified human PSA, Vitro Diagnostics) (human) (UniProt P07288)
Assay: equimolar PSA and ACT preincubated 4 h at 37 C; complex confirmed by SDS-PAGE

Chains of the proteins cited; added tags and fusions are not shown. Lines headed by an entry give the natural chain unless they say otherwise; changes in a name come on top.
UniProt P07288: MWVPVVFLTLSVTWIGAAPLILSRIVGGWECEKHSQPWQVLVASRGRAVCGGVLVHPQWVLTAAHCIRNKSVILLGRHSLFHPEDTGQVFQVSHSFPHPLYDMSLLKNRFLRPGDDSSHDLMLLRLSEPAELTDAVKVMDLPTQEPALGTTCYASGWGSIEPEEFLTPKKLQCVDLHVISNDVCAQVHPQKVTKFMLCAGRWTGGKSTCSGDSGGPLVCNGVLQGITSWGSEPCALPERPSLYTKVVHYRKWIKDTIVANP

B1: alpha-1 antichymotrypsin (ACT, Sigma Chemical Co.) (protein, UniProt P01011 24-423, looked up)
chain: HPNSPLDEENLTQENQDRGTHVDLGLASANVDFAFSLYKQLVLKAPDKNVIFSPLSISTALAFLSLGAHNTTLTEILKGLKFNLTETSEAEIHQSFQHLLRTLNQSSDELQLSMGNAMFVKEQLSLLDRFTEDAKRLYGSEAFATDFQDSAAAKKLINDYVKNGTRGKITDLIKDLDSQTMMVLVNYIFFKAKWEMPFDPQDTHQSRFYLSKKKWVMVPMMSLHHLTIPYFRDEELSCTVVELKYTGNASALFILPDQDKMEEVEAMLLPETLKRWRDSLEFREIGELYLPKFSISRDYNLNDILLQLGIEEAFTSKADLSGITGARNLAVSQVVHKAVLDVFEEGTEASAATAVKITLLSALVETRTIVRFNRPFLMIIVPTDTQNIFFMSKVTNPKQA
- binding: binds

— patent publication US20030012792A1
